Test results published in article PMC12903969, “Discovery of a Novel and Potent Kir4.1 Inhibitor as a Safe and Rapid‐Onset Antidepressant Agent in Mice” (Advanced Science, 2025).
“And” between values parts separate entries of the source, which are not always exact repeats. Equal entries are not always repeated. The source gives many values for each of these; only a part stands here.

System: mice
Assay: 21-day chronic administration: body weight, organ weight, serum biochemistry
Conditions: 10 mg/kg

| Compound | Body weight (day 1, individual animals) | Body weight (day 2, individual animals) | Body weight (day 3, individual animals) | Body weight (day 4, individual animals) | Body weight (day 5, individual animals) | Body weight (day 6, individual animals) | Body weight (day 10, individual animals) | Body weight (day 11, individual animals) | Body weight (day 12, individual animals) | Body weight (day 13, individual animals) | Body weight (day 14, individual animals) | Body weight (day 15, individual animals) | Body weight (day 16, individual animals) | Body weight (day 17, individual animals) | Body weight (day 18, individual animals) | Body weight (day 19, individual animals) | Body weight (day 20, individual animals) | Body weight (day 21, individual animals) |
| --- | --- | --- | --- | --- | --- | --- | --- | --- | --- | --- | --- | --- | --- | --- | --- | --- | --- | --- |
| c1ccc2c(c1)oc1ccc(Nc3ccnc(NCCCN4CCOCC4)n3)cc12 [JX3212, N^4-(dibenzo[b,d]furan-2-yl)-N^2-(3-morpholinopropyl)pyrimidine-2,4-diamine] | 23.6 and 25.4 (2×) and 23.7 and 24.2 and 25 | 25.7 and 24.7 and 25.9 and 24.4 and 25.5 and 26.1 | 24.7 and 25.4 and 24 and 23.7 and 23.6 and 26.4 and 25 and 25.8 | 25.7 and 25 and 25.8 (2×) and 23.8 and 24.2 | 23.8 and 26 and 24.2 (3×) and 24.7 and 25.9 and 25.5 | 25.5 and 25.6 and 23.7 and 25.8 and 24.7 | 26 | 23.7 and 25.9 and 26.2 and 24.2 | 26 (2×) and 25.5 and 24.7 and 24.3 and 25.7 and 25.4 and 26.3 and 26.5 | 26.3 and 27 and 24.7 and 25.4 and 26.7 and 25 and 25.7 and 26.2 | 25.8 (2×) and 25.5 and 26.9 and 26.8 and 27.4 | 26.7 and 26.6 and 25.4 and 27.5 and 26 and 25 and 25.5 and 25.8 | 25.8 and 26.1 (2×) and 24.7 and 26.2 and 26.7 and 27.2 and 26.6 and 25.5 | 26.4 and 26.3 and 27.1 and 25 and 26 and 26.1 and 25.5 (2×) and 26.2 | 27.5 and 26.4 and 25.8 and 26.7 and 25 and 25.7 and 26 | 26 and 27.4 and 26.7 and 27 and 25.6 and 25 (2×) and 25.7 (2×) | 25 and 24.7 and 25.8 and 26 and 25.5 and 26.6 and 27.9 and 27.3 and 26.1 | 26.9 and 26.4 and 25.8 and 25.5 and 25 and 27.5 and 26.5 (2×) |
| CN(C)CCCN1c2ccccc2CCc2ccccc21 [imipramine] | 25.5 and 25.1 and 25.2 and 24.5 and 24.7 (2×) and 24.9 and 23.9 and 23.5 and 25.8 | 26.1 and 25.8 and 25.2 and 23.9 and 25.5 and 26.3 and 23.3 and 23.7 and 24.7 and 24.4 | 26 and 25.8 and 25.5 (2×) and 24.1 and 23.8 and 25 and 23.7 and 25.3 and 25.9 | 23.9 and 25.3 (2×) and 26.1 (2×) and 24.8 and 24.3 and 25.5 and 24 and 25.7 | 23.9 and 25.3 (2×) and 26.1 (2×) and 24.8 and 24.3 and 25.5 and 24 and 25.7 | 25.3 and 25.7 and 25.8 (2×) and 24.6 and 24.2 and 25.2 and 25.5 and 26 and 24.8 |  |  |  |  |  |  |  | 25.3 and 25.8 and 25.6 and 26.8 and 27.2 and 26.7 and 25.7 and 27.1 and 26.6 and 27.4 | 25.2 and 25.5 (2×) and 26.1 and 26.7 and 26.5 and 27.3 and 26.6 and 27.2 and 25.8 | 26.9 (2×) and 26.7 and 26.4 and 25.9 and 26.8 and 25.8 and 25.7 and 25.5 and 27.4 | 27.7 and 26.4 (2×) and 26 and 26.3 and 25.5 and 27.4 and 27.3 and 26.6 and 25.7 | 26.2 and 26.4 and 26.9 and 27.1 and 26.1 (3×) and 25.8 and 27.6 and 27.2 |
